According to article PMC12533952:
These are yes or no findings as the source states them, for the method shown. Binding seen in cells or lysates may run through a third protein. A yes stands for co-enrichment or nearness to the bait. Other partners may have been found. Sequences can lack the tags named with a protein.

By UniProt entry, the sequences of proteins in these tests, tags left out.
UniProt O00505: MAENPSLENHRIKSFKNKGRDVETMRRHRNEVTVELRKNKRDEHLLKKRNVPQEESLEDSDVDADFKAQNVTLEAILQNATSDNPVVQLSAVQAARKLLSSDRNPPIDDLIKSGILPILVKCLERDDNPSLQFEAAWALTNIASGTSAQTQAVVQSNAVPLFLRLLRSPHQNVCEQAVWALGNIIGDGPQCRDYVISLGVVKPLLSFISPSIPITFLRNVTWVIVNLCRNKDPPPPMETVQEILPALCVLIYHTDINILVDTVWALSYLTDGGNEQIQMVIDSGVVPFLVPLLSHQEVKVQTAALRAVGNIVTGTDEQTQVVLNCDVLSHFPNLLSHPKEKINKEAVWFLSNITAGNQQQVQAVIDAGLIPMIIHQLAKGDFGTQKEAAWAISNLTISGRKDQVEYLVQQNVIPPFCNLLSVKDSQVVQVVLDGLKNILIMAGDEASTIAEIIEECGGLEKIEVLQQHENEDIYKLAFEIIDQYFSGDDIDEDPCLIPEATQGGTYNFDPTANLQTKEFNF
UniProt O00629: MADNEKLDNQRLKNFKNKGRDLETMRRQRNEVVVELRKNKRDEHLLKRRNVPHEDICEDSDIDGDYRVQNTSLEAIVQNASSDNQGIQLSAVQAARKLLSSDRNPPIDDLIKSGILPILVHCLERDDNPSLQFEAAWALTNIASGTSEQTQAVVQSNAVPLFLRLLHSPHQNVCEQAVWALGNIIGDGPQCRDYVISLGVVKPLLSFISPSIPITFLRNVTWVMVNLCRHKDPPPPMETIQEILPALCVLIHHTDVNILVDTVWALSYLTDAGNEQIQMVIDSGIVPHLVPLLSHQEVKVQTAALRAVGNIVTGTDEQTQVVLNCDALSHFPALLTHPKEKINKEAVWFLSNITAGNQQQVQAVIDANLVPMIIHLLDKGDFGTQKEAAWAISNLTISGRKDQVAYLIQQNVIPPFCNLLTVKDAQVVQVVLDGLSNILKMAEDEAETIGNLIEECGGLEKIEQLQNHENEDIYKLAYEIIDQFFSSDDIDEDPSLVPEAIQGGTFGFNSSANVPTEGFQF
UniProt P52294: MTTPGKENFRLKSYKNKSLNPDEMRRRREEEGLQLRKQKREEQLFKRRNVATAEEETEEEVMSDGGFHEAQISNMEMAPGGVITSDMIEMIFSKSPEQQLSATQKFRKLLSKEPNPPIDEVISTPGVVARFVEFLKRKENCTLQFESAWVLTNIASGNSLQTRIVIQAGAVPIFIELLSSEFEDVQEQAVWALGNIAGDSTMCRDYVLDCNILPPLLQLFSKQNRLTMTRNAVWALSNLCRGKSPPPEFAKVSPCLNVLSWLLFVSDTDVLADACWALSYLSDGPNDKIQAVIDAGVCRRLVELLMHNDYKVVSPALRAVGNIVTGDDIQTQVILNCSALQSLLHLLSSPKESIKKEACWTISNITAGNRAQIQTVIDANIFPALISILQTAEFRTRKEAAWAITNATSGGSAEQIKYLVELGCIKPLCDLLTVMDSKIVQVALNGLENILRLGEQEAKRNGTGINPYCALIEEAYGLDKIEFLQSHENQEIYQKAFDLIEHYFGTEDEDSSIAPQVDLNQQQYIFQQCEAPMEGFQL
UniProt P42224: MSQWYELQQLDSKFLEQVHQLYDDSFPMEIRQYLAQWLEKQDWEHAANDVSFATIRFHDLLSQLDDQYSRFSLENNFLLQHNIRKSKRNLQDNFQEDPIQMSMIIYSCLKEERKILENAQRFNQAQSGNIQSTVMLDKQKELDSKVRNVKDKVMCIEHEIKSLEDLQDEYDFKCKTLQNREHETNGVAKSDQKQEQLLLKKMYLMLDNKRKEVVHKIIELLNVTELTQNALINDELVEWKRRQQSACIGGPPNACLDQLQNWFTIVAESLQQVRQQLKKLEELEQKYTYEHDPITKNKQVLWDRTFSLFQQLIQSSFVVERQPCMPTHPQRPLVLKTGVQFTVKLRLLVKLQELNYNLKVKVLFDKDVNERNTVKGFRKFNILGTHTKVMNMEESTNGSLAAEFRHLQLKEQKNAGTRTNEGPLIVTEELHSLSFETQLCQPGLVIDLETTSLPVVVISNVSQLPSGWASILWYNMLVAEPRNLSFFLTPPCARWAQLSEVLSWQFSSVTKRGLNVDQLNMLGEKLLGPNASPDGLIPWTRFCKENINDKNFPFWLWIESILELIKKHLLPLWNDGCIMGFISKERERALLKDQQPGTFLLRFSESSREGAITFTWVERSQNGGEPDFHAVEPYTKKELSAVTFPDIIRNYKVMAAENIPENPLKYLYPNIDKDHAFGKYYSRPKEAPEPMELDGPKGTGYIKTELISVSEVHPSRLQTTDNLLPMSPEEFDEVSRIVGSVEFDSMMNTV

Target: T1, HBoV1 non-structural protein NP1, Flag-tagged (human bocavirus 1 (HBoV1)) (UniProt Q3YPH5)
T1 sequence: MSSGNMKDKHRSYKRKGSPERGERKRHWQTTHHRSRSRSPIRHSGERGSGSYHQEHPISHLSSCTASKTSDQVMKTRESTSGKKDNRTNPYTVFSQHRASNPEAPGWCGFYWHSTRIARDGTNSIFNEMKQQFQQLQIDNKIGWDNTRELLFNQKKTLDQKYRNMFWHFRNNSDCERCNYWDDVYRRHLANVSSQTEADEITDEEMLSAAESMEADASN
Assay: affinity purification with mass spectrometry; HEK293T cells transfected with Flag-tagged viral protein, IFNβ (400 U/mL) 12 h at 24 hpt; lysates with anti-Flag magnetic beads overnight; eluate identified by mass spectrometry

Substance | binding
KPNA3 (importin-α4) of HEK293T cells (from UniProt O00505 1-521) | binds
KPNA4 (importin-α3) of HEK293T cells (from UniProt O00629 1-521) | binds
KPNA6 (importin-α7) of HEK293T cells (from UniProt O60684 1-536) | binds
Karyopherin subunit alpha-1 (of HEK293T cells) (from UniProt P52294 1-538) | binds
Signal transducer and activator of transcription 1 (of HEK293T cells) (from UniProt P42224 1-750) | binds
